Data as given in patent publication US12522562B2, “Intestine-specific partial agonists of farnesoid X receptor and uses thereof” (EWHA DrugDesignHouse Co., Ltd., priority 2022, dated 2026).
“And” between values parts separate entries of the source, which are not always exact repeats. Identical values can stand only once. The name of at least one read-out is uncertain.

Assays:
Assay in all cases: Nuclear receptor selectivity panel (PathHunter NHR protein interaction assay)
RARα = biological target: T1, RARα (Homo sapiens, UniProt P10276); details: relative to 9-cis-retinoic acid
T1 sequence (P10276 1-462): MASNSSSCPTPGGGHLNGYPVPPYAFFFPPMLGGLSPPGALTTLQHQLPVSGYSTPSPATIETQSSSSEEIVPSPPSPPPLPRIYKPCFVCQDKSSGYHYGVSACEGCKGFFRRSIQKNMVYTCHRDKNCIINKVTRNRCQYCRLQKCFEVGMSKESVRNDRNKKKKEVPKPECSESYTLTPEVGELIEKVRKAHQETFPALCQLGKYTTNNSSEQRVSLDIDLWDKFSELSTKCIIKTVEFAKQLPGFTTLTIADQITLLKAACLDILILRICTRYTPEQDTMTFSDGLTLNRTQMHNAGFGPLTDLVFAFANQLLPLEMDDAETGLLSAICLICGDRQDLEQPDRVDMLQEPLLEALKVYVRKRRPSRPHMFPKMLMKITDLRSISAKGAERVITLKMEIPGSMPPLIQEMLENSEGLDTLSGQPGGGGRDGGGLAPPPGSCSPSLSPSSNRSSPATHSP

MR = biological target: T2, MR (Homo sapiens, UniProt P08235); details: relative to aldosterone
T2 sequence (P08235 1-984): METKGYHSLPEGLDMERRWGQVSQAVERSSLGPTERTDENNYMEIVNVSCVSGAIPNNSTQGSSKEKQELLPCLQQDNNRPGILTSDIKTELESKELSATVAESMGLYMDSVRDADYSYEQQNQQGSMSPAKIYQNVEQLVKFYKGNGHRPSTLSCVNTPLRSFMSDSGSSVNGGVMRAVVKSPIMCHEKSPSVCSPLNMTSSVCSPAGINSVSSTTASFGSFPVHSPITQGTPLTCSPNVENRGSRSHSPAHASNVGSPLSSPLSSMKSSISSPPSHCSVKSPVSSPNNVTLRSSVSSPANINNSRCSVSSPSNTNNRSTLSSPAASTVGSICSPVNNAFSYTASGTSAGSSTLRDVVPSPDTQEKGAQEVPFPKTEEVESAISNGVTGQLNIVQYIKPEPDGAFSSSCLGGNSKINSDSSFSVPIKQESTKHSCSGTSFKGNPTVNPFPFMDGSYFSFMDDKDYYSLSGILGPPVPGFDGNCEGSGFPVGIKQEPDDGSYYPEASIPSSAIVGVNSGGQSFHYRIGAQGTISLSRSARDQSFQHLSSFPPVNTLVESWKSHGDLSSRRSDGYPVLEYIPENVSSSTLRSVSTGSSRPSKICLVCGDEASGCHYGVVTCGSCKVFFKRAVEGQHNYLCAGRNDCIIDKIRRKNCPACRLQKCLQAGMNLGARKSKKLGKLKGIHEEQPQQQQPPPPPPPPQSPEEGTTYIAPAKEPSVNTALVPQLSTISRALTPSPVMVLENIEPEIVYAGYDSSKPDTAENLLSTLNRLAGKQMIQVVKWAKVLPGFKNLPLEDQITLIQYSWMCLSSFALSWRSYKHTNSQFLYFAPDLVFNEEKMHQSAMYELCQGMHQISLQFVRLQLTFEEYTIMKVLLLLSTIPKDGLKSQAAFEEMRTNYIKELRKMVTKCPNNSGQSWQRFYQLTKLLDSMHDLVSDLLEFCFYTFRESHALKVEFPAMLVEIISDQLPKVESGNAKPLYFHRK

THRα = biological target: T3, THRα (Homo sapiens, UniProt P10827); details: relative to triiodothyronine
T3 sequence (P10827 1-410 isoform P10827-2): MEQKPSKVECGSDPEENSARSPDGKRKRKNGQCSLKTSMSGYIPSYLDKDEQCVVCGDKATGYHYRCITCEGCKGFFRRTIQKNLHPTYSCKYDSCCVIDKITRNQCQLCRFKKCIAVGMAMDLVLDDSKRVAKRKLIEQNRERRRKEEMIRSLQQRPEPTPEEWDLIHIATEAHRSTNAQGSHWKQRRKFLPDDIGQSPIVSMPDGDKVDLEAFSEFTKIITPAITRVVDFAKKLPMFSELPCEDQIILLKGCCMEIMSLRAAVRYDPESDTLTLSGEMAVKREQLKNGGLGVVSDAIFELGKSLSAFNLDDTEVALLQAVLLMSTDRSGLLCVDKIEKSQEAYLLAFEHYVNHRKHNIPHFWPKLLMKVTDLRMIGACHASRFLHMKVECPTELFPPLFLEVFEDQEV

GR = biological target: T4, GR (Homo sapiens, UniProt P04150); details: relative to dexamethasone
T4 sequence (P04150 1-777): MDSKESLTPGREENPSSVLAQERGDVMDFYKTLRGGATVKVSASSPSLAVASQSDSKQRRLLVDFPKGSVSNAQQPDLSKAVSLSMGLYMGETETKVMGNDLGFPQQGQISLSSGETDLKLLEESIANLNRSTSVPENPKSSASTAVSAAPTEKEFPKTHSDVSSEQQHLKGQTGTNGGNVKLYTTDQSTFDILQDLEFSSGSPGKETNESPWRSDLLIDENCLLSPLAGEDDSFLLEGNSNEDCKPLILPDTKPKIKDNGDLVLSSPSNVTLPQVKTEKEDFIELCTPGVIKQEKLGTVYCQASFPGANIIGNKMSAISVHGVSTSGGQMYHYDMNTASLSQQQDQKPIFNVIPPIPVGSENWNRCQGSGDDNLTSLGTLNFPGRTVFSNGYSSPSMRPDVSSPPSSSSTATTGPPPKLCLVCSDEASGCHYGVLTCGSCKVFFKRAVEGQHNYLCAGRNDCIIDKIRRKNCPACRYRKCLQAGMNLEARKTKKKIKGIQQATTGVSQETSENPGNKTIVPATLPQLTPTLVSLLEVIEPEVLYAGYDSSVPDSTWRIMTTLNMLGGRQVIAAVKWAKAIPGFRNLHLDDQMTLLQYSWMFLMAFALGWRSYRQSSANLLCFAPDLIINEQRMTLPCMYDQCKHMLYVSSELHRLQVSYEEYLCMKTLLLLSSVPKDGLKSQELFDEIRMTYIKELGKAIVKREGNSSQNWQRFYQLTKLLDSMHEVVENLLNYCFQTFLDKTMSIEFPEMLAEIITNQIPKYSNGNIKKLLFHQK

For COC(=O)/C=C/c1cccc(N(Cc2ccc(-c3ccc(N(C)C)cc3)c(C#N)c2)C(=O)C2CCCCC2)c1 [Example 4, (E)-3-(3-((2-cyano-4′-dimethylaminobiphenyl-4-ylmethyl)cyclohexanecarbonylamino)phenyl)acrylic Acid Methyl Ester], the “% max. rel. efficacy at 100 uM” value (RARα) was < 3% and −3%, the “% max. rel. efficacy at 100 uM” value (MR) was < 3% and 0% and the “% max. rel. efficacy at 100 uM” value (THRα) was < 3% and −1%. The “% max. rel. efficacy at 100 uM” value (GR) was < 3% and 0%.
